From the supplement of paper PMC12067093, “Discovery and optimisation of a covalent ligand for TRIM25 and its application to targeted protein ubiquitination” (Chemical Science, 2025)
Some of the results follow.

The chains behind the UniProt entries cited, without tags or fusion partners. Where a name states a change or a piece, a line headed by the entry shows the natural chain unless it says otherwise.
UniProt P11413, whole entry, looked up: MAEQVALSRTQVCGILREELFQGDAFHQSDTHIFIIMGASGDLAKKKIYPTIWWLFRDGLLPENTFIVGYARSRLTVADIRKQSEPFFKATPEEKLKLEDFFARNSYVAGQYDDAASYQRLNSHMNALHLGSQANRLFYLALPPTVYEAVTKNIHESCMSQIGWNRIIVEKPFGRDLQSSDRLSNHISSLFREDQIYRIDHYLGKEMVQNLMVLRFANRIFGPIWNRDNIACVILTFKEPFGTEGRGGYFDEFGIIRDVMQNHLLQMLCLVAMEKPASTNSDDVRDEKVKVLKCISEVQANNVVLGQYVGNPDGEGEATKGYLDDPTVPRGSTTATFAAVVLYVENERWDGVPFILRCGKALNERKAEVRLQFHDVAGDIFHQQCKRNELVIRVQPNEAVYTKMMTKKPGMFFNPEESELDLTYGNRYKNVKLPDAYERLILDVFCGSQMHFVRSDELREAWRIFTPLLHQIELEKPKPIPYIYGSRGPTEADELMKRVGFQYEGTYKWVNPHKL
UniProt Q02790: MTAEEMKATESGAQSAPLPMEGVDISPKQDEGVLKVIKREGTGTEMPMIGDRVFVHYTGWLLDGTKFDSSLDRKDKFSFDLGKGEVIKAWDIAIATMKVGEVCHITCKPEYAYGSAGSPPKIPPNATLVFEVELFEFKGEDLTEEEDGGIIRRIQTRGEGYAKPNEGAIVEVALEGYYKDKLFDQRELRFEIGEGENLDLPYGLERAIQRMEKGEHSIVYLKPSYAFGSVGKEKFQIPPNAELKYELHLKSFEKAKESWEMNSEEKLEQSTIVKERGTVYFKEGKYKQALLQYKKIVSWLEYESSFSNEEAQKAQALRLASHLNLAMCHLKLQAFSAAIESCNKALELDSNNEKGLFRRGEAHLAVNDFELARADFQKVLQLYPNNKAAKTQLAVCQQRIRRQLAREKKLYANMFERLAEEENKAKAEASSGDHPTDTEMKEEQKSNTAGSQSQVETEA
UniProt Q96I24: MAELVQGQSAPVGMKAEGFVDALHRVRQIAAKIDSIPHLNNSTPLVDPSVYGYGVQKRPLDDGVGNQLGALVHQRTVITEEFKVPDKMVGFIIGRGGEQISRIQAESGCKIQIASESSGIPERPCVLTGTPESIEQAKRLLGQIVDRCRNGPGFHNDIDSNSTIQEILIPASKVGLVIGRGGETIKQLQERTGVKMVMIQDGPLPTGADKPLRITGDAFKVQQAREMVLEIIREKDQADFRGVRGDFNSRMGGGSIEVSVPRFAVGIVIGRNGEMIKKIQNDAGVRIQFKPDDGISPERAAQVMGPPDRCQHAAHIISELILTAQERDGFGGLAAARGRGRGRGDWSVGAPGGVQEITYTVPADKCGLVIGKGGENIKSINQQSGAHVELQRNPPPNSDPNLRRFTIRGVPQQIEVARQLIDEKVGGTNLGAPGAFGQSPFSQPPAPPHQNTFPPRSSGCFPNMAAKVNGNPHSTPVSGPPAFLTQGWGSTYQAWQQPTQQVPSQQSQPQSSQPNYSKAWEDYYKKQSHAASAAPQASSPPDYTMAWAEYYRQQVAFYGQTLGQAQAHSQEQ
UniProt Q5T1M5: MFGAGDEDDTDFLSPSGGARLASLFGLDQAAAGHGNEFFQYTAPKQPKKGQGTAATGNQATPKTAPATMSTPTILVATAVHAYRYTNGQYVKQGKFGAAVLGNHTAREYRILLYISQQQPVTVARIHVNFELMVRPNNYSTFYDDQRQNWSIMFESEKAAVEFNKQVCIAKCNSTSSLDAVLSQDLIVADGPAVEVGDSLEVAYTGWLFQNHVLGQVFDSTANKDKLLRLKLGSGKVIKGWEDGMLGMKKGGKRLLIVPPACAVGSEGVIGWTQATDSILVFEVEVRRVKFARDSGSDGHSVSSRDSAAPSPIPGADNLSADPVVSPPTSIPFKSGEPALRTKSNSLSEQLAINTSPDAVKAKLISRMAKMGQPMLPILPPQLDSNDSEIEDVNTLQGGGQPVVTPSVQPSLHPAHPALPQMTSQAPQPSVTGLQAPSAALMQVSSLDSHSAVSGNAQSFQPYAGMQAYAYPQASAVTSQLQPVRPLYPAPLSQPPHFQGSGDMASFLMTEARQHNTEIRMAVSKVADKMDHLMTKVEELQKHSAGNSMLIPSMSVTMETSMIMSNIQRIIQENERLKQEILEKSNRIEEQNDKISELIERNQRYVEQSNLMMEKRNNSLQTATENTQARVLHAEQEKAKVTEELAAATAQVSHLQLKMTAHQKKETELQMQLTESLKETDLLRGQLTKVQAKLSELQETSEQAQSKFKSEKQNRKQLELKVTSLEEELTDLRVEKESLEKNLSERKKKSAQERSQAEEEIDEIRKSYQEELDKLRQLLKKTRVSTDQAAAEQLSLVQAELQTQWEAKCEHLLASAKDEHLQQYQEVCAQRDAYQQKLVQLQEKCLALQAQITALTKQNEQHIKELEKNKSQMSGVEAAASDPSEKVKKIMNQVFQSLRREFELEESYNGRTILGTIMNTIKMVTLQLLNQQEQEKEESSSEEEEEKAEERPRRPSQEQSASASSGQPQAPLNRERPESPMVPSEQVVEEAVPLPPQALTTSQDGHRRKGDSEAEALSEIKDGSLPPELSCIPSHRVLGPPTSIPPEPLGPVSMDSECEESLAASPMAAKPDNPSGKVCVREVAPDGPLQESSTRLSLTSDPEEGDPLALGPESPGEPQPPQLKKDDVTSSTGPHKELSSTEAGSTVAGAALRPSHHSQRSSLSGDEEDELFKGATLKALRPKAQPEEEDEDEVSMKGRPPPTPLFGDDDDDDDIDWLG
UniProt Q14318: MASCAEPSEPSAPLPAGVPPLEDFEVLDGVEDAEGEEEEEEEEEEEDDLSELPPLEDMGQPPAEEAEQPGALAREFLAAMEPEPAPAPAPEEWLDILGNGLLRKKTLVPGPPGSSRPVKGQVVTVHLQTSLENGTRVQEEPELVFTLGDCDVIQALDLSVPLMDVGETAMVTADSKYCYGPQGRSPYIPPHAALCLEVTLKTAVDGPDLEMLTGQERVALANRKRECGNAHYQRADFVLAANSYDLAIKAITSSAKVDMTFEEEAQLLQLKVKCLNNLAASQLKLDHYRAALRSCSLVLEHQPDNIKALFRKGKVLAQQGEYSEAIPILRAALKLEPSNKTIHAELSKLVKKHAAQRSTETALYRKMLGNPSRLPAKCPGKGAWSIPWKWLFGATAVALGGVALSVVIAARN
UniProt Q5TBA9: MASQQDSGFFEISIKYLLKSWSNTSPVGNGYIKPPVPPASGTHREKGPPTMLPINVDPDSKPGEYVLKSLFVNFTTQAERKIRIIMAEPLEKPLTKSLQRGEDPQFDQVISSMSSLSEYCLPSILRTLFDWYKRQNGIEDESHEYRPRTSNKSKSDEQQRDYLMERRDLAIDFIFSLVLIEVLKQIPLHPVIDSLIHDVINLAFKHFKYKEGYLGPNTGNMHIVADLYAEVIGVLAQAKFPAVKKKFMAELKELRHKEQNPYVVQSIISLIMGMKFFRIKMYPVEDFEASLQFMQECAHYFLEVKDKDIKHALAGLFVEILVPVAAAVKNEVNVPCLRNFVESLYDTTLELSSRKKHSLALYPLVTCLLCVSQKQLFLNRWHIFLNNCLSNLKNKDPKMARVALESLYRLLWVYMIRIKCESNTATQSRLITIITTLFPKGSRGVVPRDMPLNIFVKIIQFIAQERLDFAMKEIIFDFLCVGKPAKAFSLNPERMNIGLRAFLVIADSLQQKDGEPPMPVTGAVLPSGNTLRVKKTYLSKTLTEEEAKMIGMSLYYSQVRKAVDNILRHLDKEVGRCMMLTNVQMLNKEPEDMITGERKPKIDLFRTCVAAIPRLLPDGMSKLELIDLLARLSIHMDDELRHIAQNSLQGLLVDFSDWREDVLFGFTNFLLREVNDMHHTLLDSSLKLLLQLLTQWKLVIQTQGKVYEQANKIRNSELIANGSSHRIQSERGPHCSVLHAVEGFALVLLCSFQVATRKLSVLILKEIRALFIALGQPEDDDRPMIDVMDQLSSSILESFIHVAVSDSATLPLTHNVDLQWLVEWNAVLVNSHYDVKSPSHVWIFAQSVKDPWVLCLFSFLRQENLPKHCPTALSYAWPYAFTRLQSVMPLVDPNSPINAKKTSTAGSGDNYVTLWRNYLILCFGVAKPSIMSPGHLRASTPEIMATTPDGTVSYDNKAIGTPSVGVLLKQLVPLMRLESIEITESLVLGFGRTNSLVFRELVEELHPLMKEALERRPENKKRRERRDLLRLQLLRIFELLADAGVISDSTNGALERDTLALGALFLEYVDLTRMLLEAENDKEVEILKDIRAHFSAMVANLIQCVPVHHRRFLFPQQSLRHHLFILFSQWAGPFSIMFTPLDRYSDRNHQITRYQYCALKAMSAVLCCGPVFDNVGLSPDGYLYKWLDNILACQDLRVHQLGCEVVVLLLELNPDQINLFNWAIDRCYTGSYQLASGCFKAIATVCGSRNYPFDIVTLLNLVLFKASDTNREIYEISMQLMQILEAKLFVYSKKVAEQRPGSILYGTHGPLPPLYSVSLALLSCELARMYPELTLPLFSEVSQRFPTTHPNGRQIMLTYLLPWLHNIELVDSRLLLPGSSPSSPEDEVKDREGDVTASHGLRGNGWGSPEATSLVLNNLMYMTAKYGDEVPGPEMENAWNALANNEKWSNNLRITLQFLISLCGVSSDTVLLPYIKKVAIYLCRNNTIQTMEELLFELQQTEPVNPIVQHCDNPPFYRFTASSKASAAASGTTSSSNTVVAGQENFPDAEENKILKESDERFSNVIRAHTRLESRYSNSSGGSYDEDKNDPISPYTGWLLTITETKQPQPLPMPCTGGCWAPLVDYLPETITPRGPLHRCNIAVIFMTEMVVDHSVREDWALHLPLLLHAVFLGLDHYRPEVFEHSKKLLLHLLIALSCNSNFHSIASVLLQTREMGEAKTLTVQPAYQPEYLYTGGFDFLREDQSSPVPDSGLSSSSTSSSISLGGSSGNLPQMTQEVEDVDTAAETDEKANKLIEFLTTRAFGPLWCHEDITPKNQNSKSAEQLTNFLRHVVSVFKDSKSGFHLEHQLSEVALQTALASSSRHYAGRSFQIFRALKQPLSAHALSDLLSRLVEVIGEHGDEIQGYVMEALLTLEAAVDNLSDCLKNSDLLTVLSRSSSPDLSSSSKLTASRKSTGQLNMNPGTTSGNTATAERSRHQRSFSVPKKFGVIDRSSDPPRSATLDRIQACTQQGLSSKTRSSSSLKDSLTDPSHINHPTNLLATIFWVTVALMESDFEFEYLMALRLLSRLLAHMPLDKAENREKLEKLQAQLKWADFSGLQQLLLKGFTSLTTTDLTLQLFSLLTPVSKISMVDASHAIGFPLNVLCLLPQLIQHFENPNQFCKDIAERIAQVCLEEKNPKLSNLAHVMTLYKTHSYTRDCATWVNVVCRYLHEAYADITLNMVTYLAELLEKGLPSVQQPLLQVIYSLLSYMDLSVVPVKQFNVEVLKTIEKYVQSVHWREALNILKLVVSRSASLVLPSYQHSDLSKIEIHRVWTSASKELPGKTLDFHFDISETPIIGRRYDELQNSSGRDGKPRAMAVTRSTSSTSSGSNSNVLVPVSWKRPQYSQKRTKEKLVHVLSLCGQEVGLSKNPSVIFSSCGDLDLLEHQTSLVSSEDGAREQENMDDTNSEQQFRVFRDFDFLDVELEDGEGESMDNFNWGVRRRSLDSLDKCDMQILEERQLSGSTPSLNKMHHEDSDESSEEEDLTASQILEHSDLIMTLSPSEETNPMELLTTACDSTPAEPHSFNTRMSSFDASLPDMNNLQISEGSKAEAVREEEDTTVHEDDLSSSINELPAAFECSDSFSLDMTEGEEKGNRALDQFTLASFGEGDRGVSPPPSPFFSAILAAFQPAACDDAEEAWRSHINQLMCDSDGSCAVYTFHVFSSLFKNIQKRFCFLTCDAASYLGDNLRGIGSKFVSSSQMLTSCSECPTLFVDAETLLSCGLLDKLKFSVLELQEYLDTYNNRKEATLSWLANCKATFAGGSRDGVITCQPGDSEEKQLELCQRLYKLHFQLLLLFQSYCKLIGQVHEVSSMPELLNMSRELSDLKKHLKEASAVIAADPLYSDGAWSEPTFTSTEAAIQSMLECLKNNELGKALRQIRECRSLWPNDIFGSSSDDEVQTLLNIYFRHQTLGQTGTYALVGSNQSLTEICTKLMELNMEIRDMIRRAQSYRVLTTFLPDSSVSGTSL
UniProt P26885: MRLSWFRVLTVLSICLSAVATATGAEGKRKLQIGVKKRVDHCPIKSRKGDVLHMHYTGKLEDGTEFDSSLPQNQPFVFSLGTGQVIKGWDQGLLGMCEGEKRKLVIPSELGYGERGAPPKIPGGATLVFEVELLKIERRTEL

Compound: Cc1cc(ccc1-c1ccccc1)C(=O)N1CCCN(CC1)C(=O)CCl [compound 10]
Experiment: probe-labelled cysteine peptide fold change vs DMSO (competition) (log2 fold change); higher = less target engagement (more negative = stronger competition)
Conditions: THP-1, incubation time: 4 h
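Further: competitive profiling in live THP-1 cells: cysteine peptides tagged with an iodoacetamide desthiobiotin (IA-DTB) probe, intensity after compound treatment relative to DMSO-treated cells.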

Row | Target | probe-labelled cysteine peptide fold change (10 µM) | probe-labelled cysteine peptide fold change (50 µM)
1 | FKBP9_O95302_214_GLLGMCVGEK (UniProt O95302) | -0.163 | 0.137
2 | FLNB_O75369_2115_APSVATVGSICDLNLK (UniProt O75369) | 0.00636 | -0.0153
3 | G6PD_P11413_385_LQFHDVAGDIFHQQCK (UniProt P11413) | -0.0419 | -0.0589
4 | FLNB_O75369_2431_MDCQETPEGYK (UniProt O75369) | -0.0675 | 0.0348
5 | FKBP4_Q02790_328_LASHLNLAMCHLK (UniProt Q02790) | 0.0898 | 0.132
6 | FSCN1_Q16658_19_TANGTAEAVQIQFGLINCGNK (UniProt Q16658) | -0.0329 | -0.0765
7 | FKBP1A_P62942_23_GQTCVVHYTGMLEDGK (UniProt P62942) | 0.148 | -0.0201
8 | FHL2_Q14192_224_CAGCTNPISGLGGTK (UniProt Q14192) | -0.0925 | -0.184
9 | FUT8_Q9BYC5_212_KLVCNINK (UniProt Q9BYC5) | -0.233 | -0.249
10 | FXR1_P51114_129_CTVDVPEDLREACANENAHK (UniProt P51114) | -0.0546 | -0.163
11 | FYN_P06241_404_SANILVGNGLICK (UniProt P06241) | -0.0622 | -0.152
12 | FUBP3_Q96I24_310_CQHAAHIISELILTAQER (UniProt Q96I24) | -0.0171 | -0.0499
13 | FLNB_O75369_2537_SSFLVDCSK (UniProt O75369) | -0.096 | 0.0149
14 | FH_P07954_434_LLGDASVSFTENCVVGIQANTER (UniProt P07954) | -0.37 | -0.0787
15 | FYCO1_Q9BQS8_719_EGECQQLREEVEQCQQLAEAR (UniProt Q9BQS8) | -0.0866 | -0.273
16 | FKBP4_Q02790_396_TQLAVCQQR (UniProt Q02790) | 0.214 | 0.0543
17 | FN3KRP_Q9HA64_11_RELGCSSVR (UniProt Q9HA64) | 0.0934 | 0.342
18 | FSCN1_Q16658_61_KQIWTLEQPPDEAGSAAVCLR (UniProt Q16658) | -0.0697 | -0.547
19 | FOCAD_Q5VW36_392_QQLALNLLEMIQQECYR (UniProt Q5VW36) | -0.143 | -0.14
20 | FLI1_Q01543_83_ESPVDCSVSK (UniProt Q01543) | -0.136 | 0.244
21 | FPGT_O14772_424_CSVAPGSVVEYSR (UniProt O14772) | -0.085 | -0.172
22 | FYCO1_Q9BQS8_928_ERVEEALACAVQELQDAK (UniProt Q9BQS8) | 0.104 | 0.173

Row | Target | probe-labelled cysteine peptide fold change (10 µM) | probe-labelled cysteine peptide fold change (50 µM)
23 | FHOD1_Q9Y613_31_VQYLEDTDPFACANFPEPR (UniProt Q9Y613) | -0.0761 | 0.0496
24 | FN1_P02751_374_TFYSCTTEGR (UniProt P02751) | -0.4 | -0.258
25 | GALK1_P51570_351_MTGGGFGGCTVTLLEASAAPHAMR (UniProt P51570) | 0.164 | 0.0867
26 | FMR1_Q06787_584_VDCNNER (UniProt Q06787) | 0.0799 | 0.538
27 | FLII_Q13045_933_LPEEEFGHFYTQDCYVFLCR (UniProt Q13045) | 0.172 | 0.145
28 | FIG4_Q92562_839_NSQQPCSR (UniProt Q92562) | -0.0261 | -0.31
29 | FHOD1_Q9Y613_43_APTCSLDGALPLGAQIPAVHR (UniProt Q9Y613) | -0.105 | 0.425
30 | GADD45GIP1_Q8TAE8_124_EQHIAECMAK (UniProt Q8TAE8) | 0.308 | 0.47
31 | FZD6_O60353_123_WPEELECDR (UniProt O60353) | -0.108 | 0.0877
32 | FKBP15_Q5T1M5_809_CEHLLASAK (UniProt Q5T1M5) | -0.189 | -0.135
33 | FLII_Q13045_337_LTNLEEFMAANNNLELVPESLCR (UniProt Q13045) | -0.447 | -0.421
34 | FKBPL_Q9UIM3_275_TVLHANLAACQLLLGQPQLAAQSCDR (UniProt Q9UIM3) | 0.45 | 0.459
35 | G6PD_P11413_232_DNIACVILTFK (UniProt P11413) | -0.0864 | 0.845
36 | FLII_Q13045_808_LGQELCGMLHRPR (UniProt Q13045) | -0.233 | -0.148
37 | FOXRED1_Q96CU9_239_KVQSLGVLFCQGEVTR (UniProt Q96CU9) | -0.0647 | 0.122
38 | FLII_Q13045_232_TQSNLPTSLEGLSNLADVDLSCNDLTR (UniProt Q13045) | 0.106 | -0.107
39 | FKBP7_Q9Y680_104_GLDIAMTDMCPGEK (UniProt Q9Y680) | -0.211 | 0.0516
40 | FTSJ3_Q8IY81_294_ASEIMVDDEELAQHPATTEDIRVCCQDIR (UniProt Q8IY81) | -0.0124 | -0.136
41 | FKBP8_Q14318_274_CLNNLAASQLK (UniProt Q14318) | 0.0653 | -0.0462
42 | FXR2_P51116_151_VTMAVPEDLREACSNENVHK (UniProt P51116) | 0.1 | -0.177
43 | FYCO1_Q9BQS8_882_CSSEEAQLEHAELQEQLHR (UniProt Q9BQS8) | 0.152 | -0.112
44 | FNBP1_Q96RU3_555_VLATDFDDEFDDEEPLPAIGTCK (UniProt Q96RU3) | -0.298 | -0.354

Fetched one by one from the entries so far:
Row | Target | probe-labelled cysteine peptide fold change (10 µM) | probe-labelled cysteine peptide fold change (50 µM)
29 | FHOD1_Q9Y613_43_APTCSLDGALPLGAQIPAVHR (UniProt Q9Y613) | -0.105 | 0.425
44 | FNBP1_Q96RU3_555_VLATDFDDEFDDEEPLPAIGTCK (UniProt Q96RU3) | -0.298 | -0.354
26 | FMR1_Q06787_584_VDCNNER (UniProt Q06787) | 0.0799 | 0.538

Next part

Row | Target | probe-labelled cysteine peptide fold change (10 µM) | probe-labelled cysteine peptide fold change (50 µM)
45 | FLII_Q13045_1067_TNGSALCTR (UniProt Q13045) | 0.164 | 0.0495
46 | FH_P07954_333_FEALAAHDALVELSGAMNTTACSLMK (UniProt P07954) | 0.152 | -0.0738
47 | FHOD1_Q9Y613_936_LTHFLDQCAR (UniProt Q9Y613) | 0.00046 | 0.212
48 | FIP1L1_Q6UN15_216_ITAEDCTMEVTPGAEIQDGR (UniProt Q6UN15) | -0.16 | 0.0481
49 | FKBP15_Q5T1M5_1031_DGSLPPELSCIPSHR (UniProt Q5T1M5) | -0.301 | -0.0969
50 | FTO_Q9C0B1_171_ANEDAVPLCMSADFPR (UniProt Q9C0B1) | -0.249 | -0.328
51 | FYCO1_Q9BQS8_709+719_EGECQQLREEVEQCQQLAEAR (UniProt Q9BQS8) | -0.174 | -0.546
52 | FUBP3_Q96I24_125_IQIASESSGIPERPCVLTGTPESIEQAKR (UniProt Q96I24) | 0.363 | -0.248
53 | FHOD1_Q9Y613_373_SLEGGGCPAR (UniProt Q9Y613) | -0.139 | 0.0101
54 | FRG1_Q14331_205_QCEINYVK (UniProt Q14331) | -0.243 | -0.322
55 | FSCN1_Q16658_397_GEHGFIGCR (UniProt Q16658) | 0.0894 | 0.108
56 | GAK_O14976_691_YDLDACDIQEK (UniProt O14976) | -0.0675 | -0.262
57 | FOXM1_Q08050_56_EVAESNSCK (UniProt Q08050) | -0.129 | -0.806
58 | FLOT1_O75955_85_EMLAAACQMFLGK (UniProt O75955) | 0.0672 | 0.208
59 | FKBP5_Q13451_107_KGEICHLLCKPEYAYGSAGSLPK (UniProt Q13451) | 0.00615 | -0.583
60 | FOXP1_Q9H334_29_SNGSAIQNGSGGSNHLLECGGLR (UniProt Q9H334) | -0.0915 | -0.162
61 | FMNL3_Q8IVF7_469_CHLEPNVR (UniProt Q8IVF7) | 0.0936 | -0.184
62 | GABPA_Q06546_69_LQCSLDAHEICLQDIQLDPER (UniProt Q06546) | 0.331 | -0.0571
63 | FLCN_Q8NFG4_454_STLHPVGCEDDQSLSK (UniProt Q8NFG4) | -0.00579 | -0.0219
64 | FLAD1_Q8NFF5_561_CLSPGGHPTYRPAYLLENEEEER (UniProt Q8NFF5) | -0.0194 | 0.376
65 | FLCN_Q8NFG4_215_VFEAEQFGCPQR (UniProt Q8NFG4) | -0.0204 | -0.54
66 | FRY_Q5TBA9_2174_IAQVCLEEK (UniProt Q5TBA9) | 0.1 | -0.0832

Row | Target | probe-labelled cysteine peptide fold change (10 µM) | probe-labelled cysteine peptide fold change (50 µM)
67 | FLNB_O75369_1868_AEISCIDNK (UniProt O75369) | 0.0316 | 0.123
68 | FKBP15_Q5T1M5_828_DEHLQQYQEVCAQR (UniProt Q5T1M5) | -0.134 | 0.169
69 | GALK2_Q01415_303_CLGISLEELR (UniProt Q01415) | 0.307 | -0.31
70 | FKBP2_P26885_42_VDHCPIK (UniProt P26885) | -0.117 | -0.437
71 | FTO_Q9C0B1_308_ISWDIETPGLAIPLHQGDCYFMLDDLNATHQHCVLAGSQPR (UniProt Q9C0B1) | 0.112 | 0.242
72 | FLII_Q13045_1265_CFHAWSAFCK (UniProt Q13045) | 0.0194 | 0.159
73 | FHOD1_Q9Y613_43_RAPTCSLDGALPLGAQIPAVHR (UniProt Q9Y613) | -0.3 | -0.0577
74 | FRY_Q5TBA9_1809_AFGPLWCHEDITPK (UniProt Q5TBA9) | -0.157 | -0.149
75 | FMNL1_O95466_69_KWELICDQER (UniProt O95466) | 0.058 | -0.087
76 | FLNB_O75369_455_SPFVVQVGEACNPNACR (UniProt O75369) | 0.0157 | -0.0746
77 | FKBP5_Q13451_394_LQISMCQK (UniProt Q13451) | -0.0827 | -0.272
78 | FRRS1_Q6ZNA5_107_NAEDLNGPPIGSFTLIDSEVSQLLTCEDIQGSAVSHR (UniProt Q6ZNA5) | 0.554 | 0.95
79 | FLOT2_Q14254_56_CEDVETAEGVALTVTGVAQVK (UniProt Q14254) | -0.116 | 0.0576
80 | FRG1_Q14331_159_CNEAGDIEAK (UniProt Q14331) | -0.039 | -0.204
81 | FKBP8_Q14318_195_SPYIPPHAALCLEVTLK (UniProt Q14318) | 0.38 | 0.898
82 | FLYWCH2_Q96CP2_64_GVHCVMSLGVPGPATLAK (UniProt Q96CP2) | -0.089 | -0.439
83 | FLNB_O75369_1952_DEPCLLK (UniProt O75369) | 0.0605 | 0.375
84 | FLNB_O75369_706_MDGTYACSYTPVK (UniProt O75369) | -0.0694 | -0.037
85 | FSCN1_Q16658_89_EVPGPDCR (UniProt Q16658) | 0.0368 | 0.13
